Consider one molecule from the supplement of paper PMC8728848.

Assay in all cases: glycan array binding signal (z-score within array); higher = stronger binding
Details in all cases: glycan notation: IUPAC condensed, linker removed

In assay [1] the target is Neu5Ac(a2-3)Gal(b1-3)[Fuc(a1-4)]GlcNAc. The essentials: (§1)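 Glycan array data were curated from 3228 arrays in the Consortium for Functional Glycomics database and kept only where the protein sequence was available. Glycan names were converted to IUPAC-condensed notation, and columns mapping to the same glycan were averaged. The binding signal is a within-array Z-score, averaged across arrays of the same protein sequence at different concentrations or buffers and across linkers. Negative Z-scores can be read as non-binding.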

Assay [2] has as its target Neu5Ac(a2-3)Gal(b1-3)[Fuc(a1-4)]GlcNAc(b1-3)Gal(b1-3)[Fuc(a1-4)]GlcNAc. The essentials:
as §1

For assay [3], the target named is Neu5Ac(a2-3)Gal(b1-3)[Fuc(a1-4)]GlcNAc(b1-3)Gal(b1-4)[Fuc(a1-3)]GlcNAc. The method, boiled down: as §1
Assay [4] has as its target Neu5Ac(a2-3)Gal(b1-3)[GlcNAc(b1-6)]GalNAc. The essentials:
as §1

Assay [5] has as its target Neu5Ac(a2-3)Gal(b1-3)[Neu5Ac(a2-6)]GalNAc. The essentials: as §1
In assay [6] the target is Neu5Ac(a2-3)Gal(b1-3)[Neu5Ac(a2-6)]GlcNAc(b1-3)[Fuc(a1-3)[Gal(b1-4)]GlcNAc(b1-6)]Gal(b1-4)Glc. The method, boiled down: as §1
The target in assay [7] is Neu5Ac(a2-3)Gal(b1-3)]Neu5Ac(a2-3)Gal(b1-4)]GlcNAc. The essentials:
as §1

The target of another assay is Neu5Ac(a2-3)Gal(b1-4)Glc. The essentials:
as §1

For assay [8], the target named is Neu5Ac(a2-3)Gal(b1-4)GlcNAc. The essentials: as §1
In assay [9] the target is Neu5Ac(a2-3)Gal(b1-4)GlcNAc(b1-2)Man. The method, boiled down: as §1
Assay [10] deals with Neu5Ac(a2-3)Gal(b1-4)GlcNAc(b1-2)Man(a1-3)[GlcNAc(b1-4)][Neu5Ac(a2-3)Gal(b1-4)GlcNAc(b1-2)Man(a1-6)]Man(b1-4)GlcNAc(b1-4)GlcNAc. The essentials: as §1
Assay [11] addresses Neu5Ac(a2-3)Gal(b1-4)GlcNAc(b1-2)Man(a1-3)[Neu5Ac(a2-3)Gal(b1-4)GlcNAc(b1-2)Man(a1-6)]Man(b1-4)GlcNAc(b1-4)GlcNAc. The method, boiled down: as §1
In assay [12] the target is Neu5Ac(a2-3)Gal(b1-4)GlcNAc(b1-2)Man(a1-3)[Neu5Ac(a2-3)Gal(b1-4)GlcNAc(b1-2)Man(a1-6)]Man(b1-4)GlcNAc(b1-4)[Fuc(a1-6)]GlcNAc. The method, boiled down: as §1
The target of assay [13] is Neu5Ac(a2-3)Gal(b1-4)GlcNAc(b1-2)Man(a1-3)[Neu5Ac(a2-6)Gal(b1-4)GlcNAc(b1-2)Man(a1-6)]Man(b1-4)GlcNAc(b1-4)GlcNAc. The method, boiled down:
as §1

For assay [14], the target named is Neu5Ac(a2-3)Gal(b1-4)GlcNAc(b1-2)[Neu5Ac(a2-3)Gal(b1-4)GlcNAc(b1-4)]Man(a1-3)[GlcNAc(b1-4)][Neu5Ac(a2-3)Gal(b1-4)GlcNAc(b1-2)[Neu5Ac(a2-3)Gal(b1-4)GlcNAc(b1-6)]Man(a1-6)]Man(b1-4)GlcNAc(b1-4)GlcNAc. The essentials:
as §1

Assay [15] deals with Neu5Ac(a2-3)Gal(b1-4)GlcNAc(b1-2)[Neu5Ac(a2-3)Gal(b1-4)GlcNAc(b1-4)]Man(a1-3)[GlcNAc(b1-4)][Neu5Ac(a2-3)Gal(b1-4)GlcNAc(b1-4)Man(a1-6)]Man(b1-4)GlcNAc(b1-4)GlcNAc. The method, boiled down:
as §1

Assay [16] has as its target Neu5Ac(a2-3)Gal(b1-4)GlcNAc(b1-2)[Neu5Ac(a2-3)Gal(b1-4)GlcNAc(b1-6)]Man(a1-6)[Neu5Ac(a2-3)Gal(b1-4)GlcNAc(b1-2)Man(a1-3)]Man(b1-4)GlcNAc(b1-4)GlcNAc. The essentials: as §1
Assay [17] deals with Neu5Ac(a2-3)Gal(b1-4)GlcNAc(b1-2)[Neu5Ac(a2-3)Gal(b1-4)GlcNAc(b1-6)]Man(a1-6)[Neu5Ac(a2-3)Gal(b1-4)GlcNAc(b1-2)Man(a1-3)][GlcNAc(b1-4)]Man(b1-4)GlcNAc(b1-4)GlcNAc. The method, boiled down:
as §1

The target in assay [18] is Neu5Ac(a2-3)Gal(b1-4)GlcNAc(b1-3)Gal. The essentials: as §1
Assay [19] concerns the target Neu5Ac(a2-3)Gal(b1-4)GlcNAc(b1-3)Gal(b1-3)GlcNAc. The method, boiled down:
as §1

The target in assay [20] is Neu5Ac(a2-3)Gal(b1-4)GlcNAc(b1-3)Gal(b1-4)GlcNAc. The essentials: as §1
In assay [21] the target is Neu5Ac(a2-3)Gal(b1-4)GlcNAc(b1-3)Gal(b1-4)GlcNAc(b1-2)Man(a1-3)[Neu5Ac(a2-3)Gal(b1-4)GlcNAc(b1-3)Gal(b1-4)GlcNAc(b1-2)Man(a1-6)]Man(b1-4)GlcNAc(b1-4)GlcNAc. The method, boiled down: as §1

The list shows a part of the results.

B1: SspB C123 (Streptococcus gordonii), Q54186 (protein)
chain: MAHFHYSSLLAQPQINKEIKNEDGVDIDRTLVAKQSIGKFELKTEALTAGRPKTTSFVLVDPLPTGYKFDLDATKAASTGFDTTYDEASHTVTFKATDETLATYNADLTKPVETLHPTVVGRVLNDGATYTNNFTLTVNDAYGIKSNVVRVTTPGKPNDPDNPNNNYIKPTKVNKNKEGLNIDGKEVLAGSTNYYELTWDLDQYKGDKSSKEAIQNGFYYVDDYPEEALDVRPDLVKVADEKGNQVSGVSVQQYDSLEAAPKKVQDLLKKANITVKGAFQLFSADNPEEFYKQYVSTGTSLVITDPMTVKSEFGKTGGKYENKAYQIDFGNGYATEVVVNNVPKITPKKDVTVSLDPTSENLDGQTVQLYQTFNYRLIGGFIPQNHSEELEDYSFVDDYDQAGDQYTGNYKTFSSLNLTMKDGSVIKAGTDLTSQTTAETDATNGIVTVRFKEDFLQKISLDSPFQAETYLQMRRIAIGTFENTYVNTVNKVAYASAAALEHHHHHH
Consider B1, for which the “glycan array binding signal (z-score)” value in assay [1] is 0.428; in assay [2] it was 0.153; in assay [3], 0.486; in assay [4], 1.46; in assay [5] it was -0.108; in assay [6], -0.716. The “glycan array binding signal (z-score)” value in assay [7] is -0.801; in the assay with Neu5Ac(a2-3)Gal(b1-4)Glc it was 1.36; in [8] it was 0.329; in [9], 1; in assay [10], 0.215; in [11], 0.962. Further, the “glycan array binding signal (z-score)” value in [12] was 1.81; in assay [13], -0.798; in assay [14], -0.756; in assay [15], -1.59; in assay [16] it was 2.43; in assay [17] it was -1.12. Moreover, the “glycan array binding signal (z-score)” value in assay [18] is -0.393; in [19], -0.564; in assay [20], -0.62; in [21], 1.03.
